Experimental data taken from publication PMC6056564.
Results are given in words; binding and its absence hold for the method and conditions named. Binding seen in cells or lysates may run through a third protein. Some results given as binding are weak or reduced against the parent protein; the word gives no strength.

The chains behind the UniProt entries cited, without tags or fusion partners. Residues count along the entry.
UniProt P23818, residues 19-907: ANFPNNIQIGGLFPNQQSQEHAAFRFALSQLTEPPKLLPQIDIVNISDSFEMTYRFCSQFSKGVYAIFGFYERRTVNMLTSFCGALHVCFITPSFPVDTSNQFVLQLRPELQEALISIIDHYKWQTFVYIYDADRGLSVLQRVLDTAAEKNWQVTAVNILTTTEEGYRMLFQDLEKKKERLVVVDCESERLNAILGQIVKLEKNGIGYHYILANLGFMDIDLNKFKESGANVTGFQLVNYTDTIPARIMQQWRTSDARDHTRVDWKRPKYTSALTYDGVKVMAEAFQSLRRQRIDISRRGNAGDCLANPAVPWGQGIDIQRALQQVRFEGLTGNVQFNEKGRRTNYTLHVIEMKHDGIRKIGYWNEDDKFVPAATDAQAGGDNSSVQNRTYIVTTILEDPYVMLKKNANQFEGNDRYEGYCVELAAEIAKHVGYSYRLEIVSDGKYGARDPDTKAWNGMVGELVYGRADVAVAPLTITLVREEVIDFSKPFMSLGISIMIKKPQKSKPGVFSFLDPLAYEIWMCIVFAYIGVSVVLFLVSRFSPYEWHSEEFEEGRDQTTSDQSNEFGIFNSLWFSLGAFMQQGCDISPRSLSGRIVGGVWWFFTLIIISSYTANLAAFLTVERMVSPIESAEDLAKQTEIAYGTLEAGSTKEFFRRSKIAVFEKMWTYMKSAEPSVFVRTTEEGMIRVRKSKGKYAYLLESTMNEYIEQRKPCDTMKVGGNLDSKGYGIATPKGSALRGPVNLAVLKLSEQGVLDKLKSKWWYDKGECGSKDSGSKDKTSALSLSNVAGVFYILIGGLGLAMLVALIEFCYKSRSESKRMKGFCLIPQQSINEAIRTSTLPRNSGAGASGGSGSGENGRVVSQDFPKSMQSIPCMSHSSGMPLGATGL
UniProt Q5Y5T5: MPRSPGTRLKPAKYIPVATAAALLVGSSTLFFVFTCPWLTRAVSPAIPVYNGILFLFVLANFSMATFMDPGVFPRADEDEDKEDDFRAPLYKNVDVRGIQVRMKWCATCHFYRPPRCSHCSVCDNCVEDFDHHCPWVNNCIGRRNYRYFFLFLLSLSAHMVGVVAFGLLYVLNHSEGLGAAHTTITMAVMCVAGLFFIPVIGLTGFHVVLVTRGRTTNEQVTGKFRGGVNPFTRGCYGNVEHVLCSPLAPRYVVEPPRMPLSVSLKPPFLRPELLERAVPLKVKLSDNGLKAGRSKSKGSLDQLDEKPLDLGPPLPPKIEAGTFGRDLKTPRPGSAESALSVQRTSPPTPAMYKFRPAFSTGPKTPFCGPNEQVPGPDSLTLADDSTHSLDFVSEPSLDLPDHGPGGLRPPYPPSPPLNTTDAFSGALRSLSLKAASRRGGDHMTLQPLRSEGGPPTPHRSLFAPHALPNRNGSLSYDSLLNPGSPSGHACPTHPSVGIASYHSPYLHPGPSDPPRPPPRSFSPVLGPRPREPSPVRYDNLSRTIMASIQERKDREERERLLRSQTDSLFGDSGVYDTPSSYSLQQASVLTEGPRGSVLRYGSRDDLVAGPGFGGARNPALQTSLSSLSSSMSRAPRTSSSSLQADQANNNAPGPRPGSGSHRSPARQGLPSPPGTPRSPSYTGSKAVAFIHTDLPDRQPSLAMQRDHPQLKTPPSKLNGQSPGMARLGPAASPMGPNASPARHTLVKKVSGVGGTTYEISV

Biological target: GluA1 protein (AMPA receptor subunit) (mouse (endogenous in hippocampus of C57BL/6 mice)) (UniProt P23818)
Assay: co-IP; hippocampal lysates of KA-induced chronic epileptic mice in modified RIPA buffer; antibodies to ZDHHC8, GluA1, GluA2, GluA3 or GluA4 with protein A/G-agarose beads, 2 h at room temperature, three washes with RIPA buffer; Western blots with ZDHHC8 and GluA1-4 antibodies

Zinc finger DHHC-type containing 8 (ZDHHC8) (from UniProt Q5Y5T5 1-762) (enzyme)
binding: binds
